Reference: PMC6456674
These are yes or no findings as the source states them, for the method shown. For some of these results: Binding seen in cells or lysates may run through a third protein. Some results given as binding are weak or reduced against the parent protein; the word gives no strength.

Amino acid sequences for entries named in this document (tags omitted).
UniProt P70604: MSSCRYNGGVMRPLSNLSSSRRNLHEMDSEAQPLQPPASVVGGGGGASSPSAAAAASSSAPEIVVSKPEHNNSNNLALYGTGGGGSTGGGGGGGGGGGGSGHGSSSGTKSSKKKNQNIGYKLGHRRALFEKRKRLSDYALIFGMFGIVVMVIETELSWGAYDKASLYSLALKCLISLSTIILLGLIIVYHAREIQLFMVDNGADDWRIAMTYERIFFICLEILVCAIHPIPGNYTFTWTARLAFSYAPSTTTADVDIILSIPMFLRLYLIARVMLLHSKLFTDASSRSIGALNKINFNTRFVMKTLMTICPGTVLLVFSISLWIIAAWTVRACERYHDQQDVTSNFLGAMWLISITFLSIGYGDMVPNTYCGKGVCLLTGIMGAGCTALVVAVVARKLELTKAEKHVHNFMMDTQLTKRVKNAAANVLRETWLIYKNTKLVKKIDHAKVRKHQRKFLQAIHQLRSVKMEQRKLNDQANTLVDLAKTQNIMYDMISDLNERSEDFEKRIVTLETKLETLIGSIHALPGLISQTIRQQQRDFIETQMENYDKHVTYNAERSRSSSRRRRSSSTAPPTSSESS
UniProt P70606: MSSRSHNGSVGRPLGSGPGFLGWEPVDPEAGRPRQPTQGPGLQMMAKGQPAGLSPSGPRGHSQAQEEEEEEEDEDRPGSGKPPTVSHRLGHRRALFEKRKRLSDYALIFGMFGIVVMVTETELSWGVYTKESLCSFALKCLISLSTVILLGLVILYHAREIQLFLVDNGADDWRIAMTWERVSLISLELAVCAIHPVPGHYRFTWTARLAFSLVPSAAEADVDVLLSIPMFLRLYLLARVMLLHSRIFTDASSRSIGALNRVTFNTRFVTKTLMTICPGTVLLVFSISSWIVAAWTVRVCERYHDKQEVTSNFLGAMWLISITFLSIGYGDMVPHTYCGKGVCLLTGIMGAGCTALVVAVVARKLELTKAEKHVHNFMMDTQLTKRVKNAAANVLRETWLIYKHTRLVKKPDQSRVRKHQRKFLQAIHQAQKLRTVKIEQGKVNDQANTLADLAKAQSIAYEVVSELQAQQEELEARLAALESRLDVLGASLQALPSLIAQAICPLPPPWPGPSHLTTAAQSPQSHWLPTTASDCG

What was measured:
[1] = target: rat SK2 tagged with triple Myc (rSK2-Myc) (rat) (UniProt P70604); assay: SDS-PAGE and western blot (oligomer bands); lysates and biotinylated membrane fraction of transfected Cosm6 cells; samples boiled in SDS sample buffer with 100 mM DTT, 4-12% Bis-Tris gels, blots probed with Myc or HA antibody
[2] = target: rat SK1 tagged with HA (rSK1-HA) (rat) (UniProt P70606); assay: co-IP; Cosm6 cells transfected with rSK1-HA and/or rSK2-Myc; solubilised protein precleared, immunoprecipitated overnight at 4°C with mouse anti-Myc (protein G sepharose) or rabbit anti-HA (protein A sepharose); pellets washed three times in RIPA buffer (150 mM NaCl, 1% Triton X-100, 0.5% sodium deoxycholate, 0.1% SDS, 50 mM Tris pH 8.0); immunoblotted with Myc or HA antibody
[3] = target: rat SK1 tagged with HA (rSK1-HA) (rat) (UniProt P70606); assay: SDS-PAGE and western blot (oligomer bands); lysates and biotinylated membrane fraction of transfected Cosm6 cells; samples boiled in SDS sample buffer with 100 mM DTT, 4-12% Bis-Tris gels, blots probed with Myc or HA antibody
[4] = target: rat SK2 tagged with triple Myc (rSK2-Myc) (rat) (UniProt P70604); assay: co-IP; Cosm6 cells transfected with rSK1-HA and/or rSK2-Myc; solubilised protein precleared, immunoprecipitated overnight at 4°C with mouse anti-Myc (protein G sepharose) or rabbit anti-HA (protein A sepharose); pellets washed three times in RIPA buffer (150 mM NaCl, 1% Triton X-100, 0.5% sodium deoxycholate, 0.1% SDS, 50 mM Tris pH 8.0); immunoblotted with Myc or HA antibody

Substance | binding [1] | binding [2] | binding [3] | binding [4]
rat SK2 tagged with triple Myc (rSK2-Myc) (from UniProt P70604 1-580) | binds | binds | – | –
rat SK1 tagged with HA (rSK1-HA) (from UniProt P70606 1-536) | – | – | binds | binds
